{
  "source": "PubChem BioAssay AID1347076",
  "about": "(National Center for Advancing Translational Sciences (NCATS), 2019)",
  "note": "Hit rate of the full screen: of about 400,000 compounds, about 13,000 (3.2%) were called active. This list was built around the results that the source calls inconclusive (neither active nor inactive); the mix of calls is not that of the screen. Calls follow the shape of the dose curve; as a rule, active = well fitted cell-killing curve with a large enough effect; inconclusive = small, poorly fitted or top-dose-only effect, or effect the other way; inactive = flat fitted curve, though single readings scatter. A potency beside an inconclusive call is a rough fit, not a confirmed value. % is scaled to controls: 0 for no effect and ±100 for the full control effect; potency is read from the fitted curve at half-maximal effect.",
  "data": [
    {"test": "qHTS assay for MDR1-selective chemotherapeutics: Primary screen using the drug-selected MDR subline cells KB-V1; also: nearly all actives have a fitted effect of over 60% in size", "details": "KB-V1 MDR cells viability, CellTiter-Glo, 72 h; activity change, negative = cytotoxicity: at 46.1 µM (top of the series)", "outline": "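KB-V1, DMEM (no phenol red) + 10% FBS; cpd pin-transferred, titration series; 72 h, 37 degrees C; CellTiter-Glo, luminescence. Data normalized, curve-fit.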", "values": [
      {"smiles": "O=C(NC1CCCC1)C1c2ccccc2OCC(=O)N1CCc1ccccc1", "note": "(stereo unspecified)", "Potency": "inactive"},
      {"smiles": "Cc1cccc(/C(N)=N/OC(=O)CCc2ccccc2)c1", "Potency": "inactive"},
      {"smiles": "CN(C)S(=O)(=O)c1cc(NC(=O)CN2CCCc3ccccc32)ccc1Cl", "Potency": "inconclusive: 7.31 µM [cytotoxic, partial curve]"},
      {"smiles": "Cc1ccccc1-n1nnnc1Sc1nnnn1-c1ccccc1", "Potency": "inconclusive: 29.1 µM [cytotoxic, single point]"},
      {"smiles": "CCOc1ccc(CCNC(=O)c2ccc(C)c(-n3c(C)nc4cccnc43)c2)cc1OCC", "Potency": "inactive"},
      {"smiles": "CC(=O)OCC(=O)C1CCC2C3CC=C4CC(O)CCC4(C)C3CCC12C", "note": "(stereo unspecified)", "Potency": "active: 14.6 µM"},
      {"smiles": "COC(=O)c1ccc2c(c1)N(C)S(=O)(=O)c1cnc(SCC(=O)C(C)(C)C)nc1-2", "Potency": "inactive"},
      {"smiles": "COc1ccccc1S(=O)(=O)Cc1ccc(C(=O)N2CCOCC2)o1", "Potency": "inactive"},
      {"smiles": "O=S(=O)(/C=C/c1ccccc1)Nc1ccc(F)cc1", "Potency": "inconclusive: 29.1 µM [cytotoxic, single point]"},
      {"smiles": "CCCNS(=O)(=O)c1ccc(Oc2ncc(C(F)(F)F)cc2Cl)cc1", "Potency": "inconclusive: 25.9 µM [cytotoxic, single point]"},
      {"smiles": "Cc1ccc2sc(N(CCCN(C)C)C(=O)c3ccc(S(=O)(=O)N(C)Cc4ccccc4)cc3)nc2c1C", "Potency": "inconclusive: 23.1 µM [cytotoxic, partial curve, poor fit]"},
      {"smiles": "COc1ccc(OC)c(S(=O)(=O)Nc2ccc(C)c(C)c2)c1", "Potency": "inactive"},
      {"smiles": "CCC1(C)Cc2c(sc3[nH]c(=O)[nH]c(=O)c23)CS1", "note": "(stereo unspecified)", "Potency": "active: 11.6 µM"},
      {"smiles": "CCn1cc(C(=O)N(CCCN2CCOCC2)Cc2ccco2)c(=O)c2ccc(C)nc21", "Potency": "inconclusive: 14.6 µM [rising, partial curve, poor fit]"},
      {"smiles": "O=C(NC(=S)Nc1ccc(Br)cc1)C1CCCCC1", "Potency": "inactive"},
      {"smiles": "NNC(=O)c1nn(-c2ccc(Cl)cc2)cc1O", "Potency": "inconclusive: 32.6 µM [cytotoxic, single point]"},
      {"smiles": "CC(C)NC(=O)NC(=O)COC(=O)c1ccc([N+](=O)[O-])cc1Cl", "Potency": "inconclusive: 32.6 µM [rising, single point]"},
      {"smiles": "CCOC(=O)[C@]12CCCC=C1N(Cc1cccc3ccccc13)C(=O)[C@H](CC(=O)N1CCSCC1)C2", "Potency": "active: 18.4 µM"},
      {"smiles": "CN1/C(=C\\C(=O)COc2ccc3c(c2)OCO3)C(C)(C)c2ccccc21", "Potency": "inconclusive: 29.1 µM [cytotoxic, partial curve, poor fit]"},
      {"smiles": "COc1ccc(N(Cc2cccs2)C(=O)COc2ccc([N+](=O)[O-])cc2)cc1", "Potency": "inconclusive: 20.6 µM [cytotoxic, single point]"},
      {"smiles": "O=C(/C=C/c1ccccc1[N+](=O)[O-])c1ccc(F)cc1", "Potency": "active: 23.1 µM"},
      {"smiles": "Fc1ccccc1CNc1ccc(Cl)cc1", "Potency": "inactive"},
      {"smiles": "Cc1ccc(S(=O)(=O)N2CCOCC2)cc1NC(=O)COC(=O)c1cnccn1", "Potency": "inconclusive: 7.31 µM [rising, single point]"},
      {"smiles": "O=C(NCCC(=O)N1CCCCC1)c1ccccc1Cl", "Potency": "inactive"},
      {"smiles": "CC(=O)Nc1ccc(CNc2nc3cc(-c4cccc(C(F)(F)F)c4)sc3c(=O)n2C)cc1", "Potency": "inconclusive: 5.8 µM [cytotoxic, full curve]"},
      {"smiles": "CCc1c(C)c(C#N)c2nc3ccccc3n2c1NCc1ccco1", "Potency": "inconclusive: 20.6 µM [cytotoxic, single point]"},
      {"smiles": "COc1ccc(CN2CC[C@H]3C=CC[C@@H](C(=O)Nc4ccc(Cl)c(C(F)(F)F)c4)[C@H]3C2=O)cc1OC", "Potency": "inconclusive: 8.2 µM [cytotoxic, partial curve]"},
      {"smiles": "Cc1nn(C)c2c1c(-c1ccccc1)cc(=O)n2Cc1c(F)cccc1Cl", "Potency": "inactive"},
      {"smiles": "CC(=O)N1Cc2cc(C(=O)NCC(F)(F)F)nc(-c3cccc(-c4cc5ccccc5o4)c3)c2[C@@H]1CCO", "Potency": "active: 23.1 µM"},
      {"smiles": "COc1cc(C(=O)Nc2ccc(N(C)C)cc2)cc(OC)c1OC", "Potency": "inactive"},
      {"smiles": "CC(=O)C12CCCCC1CC1C3CC(C)C4(O)CC(=O)CCC4(C)C3CCC12C", "note": "(stereo unspecified)", "Potency": "inconclusive: 0.82 µM [rising, partial curve, poor fit]"},
      {"smiles": "O=C(CN1C(=O)C2(OCCO2)c2ccccc21)c1ccc(Cl)cc1", "Potency": "active: 20.6 µM"},
      {"smiles": "O=C1c2oc3ccccc3c(=O)c2C(c2cccc(O)c2)N1Cc1ccc(F)cc1", "note": "(stereo unspecified)", "Potency": "inactive"},
      {"smiles": "CCOc1ccc(N(CC(=O)Nc2ccc3c(c2)OCO3)S(=O)(=O)c2ccccc2)cc1", "Potency": "inactive"},
      {"smiles": "O=c1cc2oc3cc(O)c(O)cc3c(-c3ccccc3[N+](=O)[O-])c-2cc1O", "Potency": "inconclusive: 18.4 µM [cytotoxic, single point]"},
      {"smiles": "COc1ccccc1Nc1nc(C)nc2c1oc1ccccc12", "Potency": "inconclusive: 14.6 µM [cytotoxic, partial curve]"},
      {"smiles": "CCn1c(=NC(=O)c2ccc(N3C(=O)CCC3=O)cc2)sc2c(OC)ccc(OC)c21", "Potency": "inactive"},
      {"smiles": "O=C(NC1CC2CCCC(C1)N2C(=S)Nc1ccccc1Cl)C1CC1", "note": "(stereo unspecified)", "Potency": "inconclusive: 29.1 µM [cytotoxic, single point]"},
      {"smiles": "Cc1cc(N2CCOCC2)nc(SCc2ccc(Cl)cc2Cl)n1", "Potency": "inconclusive: 16.4 µM [cytotoxic, partial curve]"},
      {"smiles": "COc1ccc(Nc2ccccc2N)cc1", "Potency": "inconclusive: 20.6 µM [cytotoxic, single point]"},
      {"smiles": "N#Cc1c(-c2ccccc2F)cc(C2CC2)nc1SCC(=O)c1cccs1", "Potency": "inconclusive: 10.3 µM [cytotoxic, partial curve, poor fit]"},
      {"smiles": "Cc1nnc(SCc2nnc(-c3cccs3)o2)n1C1CCCCC1", "Potency": "inconclusive: 29.1 µM [cytotoxic, partial curve, poor fit]"},
      {"smiles": "Clc1ccccc1-c1cc2nc(NCc3ccco3)ccn2n1", "Potency": "inactive"},
      {"smiles": "COc1ccc(C2c3c(-c4cc(Cl)c(C)cc4O)n[nH]c3C(=O)N2Cc2cccnc2)cc1OC", "note": "(stereo unspecified)", "Potency": "inconclusive: 23.1 µM [cytotoxic, single point]"},
      {"smiles": "CCOc1ccc(N(Cc2cc3cc(C)ccc3[nH]c2=O)S(=O)(=O)c2ccccc2)cc1", "Potency": "inactive"},
      {"smiles": "O=C1CSC(=O)N1CCOCCN1C(=O)CSC1=O", "Potency": "inconclusive: 20.6 µM [rising, single point]"},
      {"smiles": "Cc1ccc(S(=O)(=O)NCC(=O)OCC(=O)NC2CCCCC2)cc1", "Potency": "inconclusive: 25.9 µM [cytotoxic, single point]"},
      {"smiles": "COc1ccc(CCN2C(=O)c3cccc4c(C(=O)N5CCCCC5)ccc(c34)C2=O)cc1OC", "Potency": "active: 2.91 µM"},
      {"smiles": "CCOC(=O)c1ccccc1NC(=O)CSC(C)C(=O)Nc1cc(C)on1", "note": "(stereo unspecified)", "Potency": "inactive"},
      {"smiles": "O=C1CN(C(=O)c2ccc(S(=O)(=O)N3CCCC3)cc2)C(c2ccc(F)cc2)c2cc(F)ccc2N1", "note": "(stereo unspecified)", "Potency": "inconclusive: 29.1 µM [rising, single point]"},
      {"smiles": "CCc1ccc(NS(=O)(=O)c2ccc3[nH]cc(C(=O)N4CCCCCC4)c(=O)c3c2)cc1", "Potency": "inconclusive: 10.3 µM [rising, single point]"},
      {"smiles": "COc1ccccc1NC(=O)C(CC(C)C)NC(=O)C1CCCCC1", "note": "(stereo unspecified)", "Potency": "active: 4.11 µM"},
      {"smiles": "O=C(CN1CCN(C(=O)CNC(=O)c2ccc3c(c2)OCO3)CC1)Nc1cccc(F)c1", "Potency": "inconclusive: 0.0731 µM [rising, full curve]"},
      {"smiles": "O=C(Nc1ccc(Cl)cc1)c1nc[nH]c1C(=O)NCCCCNC(=O)c1[nH]cnc1C(=O)Nc1ccc(Cl)cc1", "Potency": "active: 20.6 µM"},
      {"smiles": "O=C(NC1CCCCC1)c1sc(=S)n2c1[nH]c(=O)c1ccccc12", "Potency": "active: 20.6 µM"},
      {"smiles": "CCCOc1c(Br)cc(/C=N/O)cc1OC", "Potency": "inconclusive: 29.1 µM [cytotoxic, single point]"},
      {"smiles": "COc1ccc(/C=C\\C(=O)c2c(O)ccc3c(C)cc(=O)oc23)cc1OC", "Potency": "active: 20.6 µM"},
      {"smiles": "COc1ccc(-c2nn(-c3ccccc3)cc2/C=N/Nc2ccc(Cl)c(C(=O)O)c2)cc1OC", "Potency": "inconclusive: 29.1 µM [rising, single point]"},
      {"smiles": "CCOC(=O)c1ccc(-c2cc(C)no2)[nH]1", "Potency": "inconclusive: 29.1 µM [cytotoxic, single point]"},
      {"smiles": "COc1ccccc1Cn1c(=O)c2ccccc2n2c(Sc3ncnc4sccc34)nnc12", "Potency": "inconclusive: 23.1 µM [cytotoxic, single point]"},
      {"smiles": "CC1(C(=O)Nc2cnc3ccccc3c2)CCN1Cc1ccccc1OC(F)F", "note": "(stereo unspecified)", "Potency": "inconclusive: 2.59 µM [cytotoxic, partial curve, poor fit]"},
      {"smiles": "Cc1cccc(C(=O)C2CCN(S(=O)(=O)c3cccc(C(=O)O)c3)CC2)c1", "Potency": "inactive"},
      {"smiles": "CC(C)n1c(=O)c2ccccc2n1Cc1cn(CCc2c[nH]c3ccccc23)nn1", "Potency": "inconclusive: 29.1 µM [cytotoxic, single point]"},
      {"smiles": "O=C(Nc1c2c(nn1-c1ccccc1)CSC2)c1ccc(N2C(=O)CCC2=O)cc1", "Potency": "inconclusive: 20.6 µM [rising, partial curve, poor fit]"},
      {"smiles": "COc1ccc(-c2nc(CSCC(=O)N3CCN(c4cccc(C)c4)C(C)C3)c(C)o2)cc1OC", "note": "(stereo unspecified)", "Potency": "inconclusive: 4.11 µM [cytotoxic, partial curve, poor fit]"},
      {"smiles": "Cc1ccc(C)c(NC(=S)NC(NC(=O)Cc2ccccc2)C(Cl)(Cl)Cl)c1", "note": "(stereo unspecified)", "Potency": "inconclusive: 29.1 µM [cytotoxic, single point]"},
      {"smiles": "Cc1ccc(-n2c(SCc3nc(-c4ccc(Cl)cc4)no3)nnc2-c2ccncc2)cc1", "Potency": "inactive"},
      {"smiles": "O=C(Nc1c(C(=O)N2CCC(N3CCCCC3)CC2)oc2ccccc12)c1ccc(F)cc1", "activity change, negative = cytotoxicity": "inconclusive: -7.86%"},
      {"smiles": "O=C(Nc1ccc(S(=O)(=O)N2CCCC2)cc1)C1CC(=O)N(CCc2ccccc2)C1", "note": "(stereo unspecified)", "Potency": "inactive"},
      {"smiles": "CCOC(=O)CNC(c1ccccc1)c1cc(Br)ccc1NC(=O)OCC", "note": "(stereo unspecified)", "Potency": "inactive"},
      {"smiles": "CC(Sc1nc(N)cc(=O)[nH]1)C(=O)N1CCOCC1", "note": "(stereo unspecified)", "Potency": "inconclusive: 29.1 µM [rising, single point]"}
    ]}
  ]
}
